Measurements from PMC12138102 (Acta Pharmaceutica Sinica. B, 2025).

Key:
[1] = AlCl3-induced zebrafish AD model; settings: in vivo, 3 μg/mL
BuChE = assay: Reversibility of BuChE inhibition; assay type: biochemical

With `COc1cc2c(cc1OC)C(=O)C(CC1CCN(Cc3ccccc3)CC1)C2` (stereo not shown) [Donepezil] the concentration at 48 h [1] was 329 ng/mL, the “BuChE activity after dilution, start of monitoring” value (BuChE; 0.1 × IC50) was 51.3% and the “recovery of BuChE activity / reversibility” value (BuChE; 0.1 × IC50, 120 min) was “reversible inhibition of BuChE”. For the same compound, the “BuChE activity after dilution, end of monitoring” value (BuChE; 0.1 × IC50, over 120 min) was 68.2%.
